Consider one molecule from doi:10.1101/2022.10.27.514150.

No constants are given. Whether binding was seen depends on the method and setting. Binding seen in cells or lysates may run through a third protein. A yes stands for co-enrichment or nearness to the bait. Other partners may have been found.

The target of the experiment is T1, ΔNp73α-TAP (UniProt O15350).
T1 sequence: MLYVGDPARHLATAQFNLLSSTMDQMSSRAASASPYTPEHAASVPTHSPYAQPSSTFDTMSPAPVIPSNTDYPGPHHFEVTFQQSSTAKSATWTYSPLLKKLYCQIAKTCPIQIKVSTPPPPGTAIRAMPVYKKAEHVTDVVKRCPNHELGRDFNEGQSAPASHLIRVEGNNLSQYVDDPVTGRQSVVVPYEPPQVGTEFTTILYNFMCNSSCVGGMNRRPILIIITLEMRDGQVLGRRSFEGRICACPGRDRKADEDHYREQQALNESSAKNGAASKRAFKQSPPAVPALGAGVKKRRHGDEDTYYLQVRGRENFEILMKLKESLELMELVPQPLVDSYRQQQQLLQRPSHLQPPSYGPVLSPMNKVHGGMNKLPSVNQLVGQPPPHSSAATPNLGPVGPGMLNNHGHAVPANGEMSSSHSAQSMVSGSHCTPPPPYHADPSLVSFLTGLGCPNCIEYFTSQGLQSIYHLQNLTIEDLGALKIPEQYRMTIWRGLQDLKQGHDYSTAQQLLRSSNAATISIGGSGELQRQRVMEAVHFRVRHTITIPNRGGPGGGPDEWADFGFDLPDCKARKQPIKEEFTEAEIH
In words: affinity purification with mass spectrometry.

B1: endogenous p63 (38HK) (protein, UniProt Q9H3D4 1-680)
chain: MNFETSRCATLQYCPDPYIQRFVETPAHFSWKESYYRSTMSQSTQTNEFLSPEVFQHIWDFLEQPICSVQPIDLNFVDEPSEDGATNKIEISMDCIRMQDSDLSDPMWPQYTNLGLLNSMDQQIQNGSSSTSPYNTDHAQNSVTAPSPYAQPSSTFDALSPSPAIPSNTDYPGPHSFDVSFQQSSTAKSATWTYSTELKKLYCQIAKTCPIQIKVMTPPPQGAVIRAMPVYKKAEHVTEVVKRCPNHELSREFNEGQIAPPSHLIRVEGNSHAQYVEDPITGRQSVLVPYEPPQVGTEFTTVLYNFMCNSSCVGGMNRRPILIIVTLETRDGQVLGRRCFEARICACPGRDRKADEDSIRKQQVSDSTKNGDGTKRPFRQNTHGIQMTSIKKRRSPDDELLYLPVRGRETYEMLLKIKESLELMQYLPQHTIETYRQQQQQQHQHLLQKQTSIQSPSSYGNSSPPLNKMNSMNKLPSVSQLINPQQRNALTPTTIPDGMGANIPMMGTHMPMAGDMNGLSPTQALPPPLSMPSTSHCTPPPPYPTDCSIVSFLARLGCSSCLDYFTTQGLTTIYQIEHYSMDDLASLKIPEQFRHAIWKGILDHRQLHEFSSPSHLLRTPSSASTVSVGSSETRGERVIDAVRFTLRQTISFPPRDEWNDFNFDMDARRNKQQRIKEEGE
With B1, the binding entry is recorded as “binds”.
